# Laboratory results: PubChem BioAssay AID1347421 (Sanford-Burnham Center for Chemical Genomics, 2020)
# The chains behind the UniProt entries cited, without tags or fusion partners. Where a name states a change or a piece, a line headed by the entry shows the natural chain unless it says otherwise.
# UniProt O00391: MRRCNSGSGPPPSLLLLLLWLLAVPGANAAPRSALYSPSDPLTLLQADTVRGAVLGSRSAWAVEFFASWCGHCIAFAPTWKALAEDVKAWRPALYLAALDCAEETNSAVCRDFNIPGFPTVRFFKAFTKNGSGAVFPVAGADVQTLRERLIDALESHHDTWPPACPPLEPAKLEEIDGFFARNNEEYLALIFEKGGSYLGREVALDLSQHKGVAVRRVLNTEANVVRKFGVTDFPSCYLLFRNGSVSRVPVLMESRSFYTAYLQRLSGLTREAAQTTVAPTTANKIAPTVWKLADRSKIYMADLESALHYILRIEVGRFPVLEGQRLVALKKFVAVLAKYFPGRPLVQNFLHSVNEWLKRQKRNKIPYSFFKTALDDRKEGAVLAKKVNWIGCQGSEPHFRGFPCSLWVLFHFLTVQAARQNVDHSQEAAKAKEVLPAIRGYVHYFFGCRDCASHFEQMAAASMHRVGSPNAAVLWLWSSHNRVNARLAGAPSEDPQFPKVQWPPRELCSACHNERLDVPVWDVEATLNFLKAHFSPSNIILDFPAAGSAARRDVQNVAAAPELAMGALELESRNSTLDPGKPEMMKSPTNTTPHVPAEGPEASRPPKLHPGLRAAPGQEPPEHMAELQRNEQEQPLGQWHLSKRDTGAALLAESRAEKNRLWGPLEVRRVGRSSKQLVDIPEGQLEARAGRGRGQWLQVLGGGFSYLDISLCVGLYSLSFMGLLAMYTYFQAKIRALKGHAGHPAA
# Over roughly 1,500 compounds, “activity” has its median near 2; the lowest 2% begin near -18. Some of the results follow. Calls of active or inactive are those of the source.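 The calls were made as follows: active = inhibition of at least 40% at 10 µM; inconclusive = no clear call, values can overlap the other calls; inactive = the rest.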
# Molecular target: Sulfhydryl oxidase 1 (Homo sapiens) (UniProt O00391)
# Test: human QSOX1 sulfhydryl oxidase inhibition – biochemical, ROS-Glo luminescence, single concentration, confirmation (AID 1347421);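 also: 0% = DMSO wells with enzyme and 100% = wells lacking QSOX1 enzyme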
# Conditions: recombinant hQSOX1, RNase A substrate, ROS-Glo H2O2 luminescence; at 10 µM
row,SMILES,activity
1,Cc1nc(CN2CCN(Cc3nc(-c4cccc(Cl)c4)no3)CC2)cs1,inactive: -1.4%
2,OC(COc1cccc(CNCc2ccc3nsnc3c2)c1)CN1CCOCC1 (stereo not drawn),0.3%
3,CC(C)Oc1cccc(NC(=O)c2ccccc2Cl)c1,inactive: -28.9%
4,C=CCCC(=O)N1CCC2(CCCN(Cc3ccc(F)c(F)c3)C2=O)C1 (stereo not drawn),inactive: -1.3%
5,CN(Cc1ccccc1)C1CCCN(Cc2nc(-c3ccccc3)no2)C1 (stereo not drawn),inactive: -2.9%
6,C=CCN(CC=C)C(=O)Cn1nnnc1CN1CCOCC1,8.8%
7,COC(=O)c1ccc(CNC(=O)CC2C(=O)NCCN2Cc2cccs2)cc1 (stereo not drawn),2.8%
8,O=Cc1ccc(C(=O)N2CCCC(C(=O)c3cccc4ccccc34)C2)cc1 (stereo not drawn),inactive: -2.5%
9,CSCCC(=O)N1CCC(CCC(=O)NCc2cccc(Cl)c2)CC1,2.9%
10,COc1ccc(Cl)cc1-c1noc(COc2ccccc2)n1,6.3%
11,CCC1CCC(=O)C(C2(O)C(=O)Nc3ccc(Br)cc32)C1 (stereo not drawn),2.7%
12,COc1ccccc1-c1cnn(CC(=O)Nc2c(-c3ccccc3)cnn2C)c1,4.5%
13,CN(C(=O)CCN1CCCCO1)C1CCCN(Cc2ccccc2F)C1 (stereo not drawn),inactive: -4.3%
14,Cc1nc(SCC(=O)N2CCN(c3ccccc3)CC2)nc2c1CCCC2,inactive: -19.5%
15,CC1(C)CN(C(=O)Nc2nnc(-c3ccco3)s2)CCO1,inactive: -7.1%
16,COc1ccc(CNCC(C)(C)CO)cc1OCC(O)CN(C)C(C)C (stereo not drawn),8.7%
17,CC(C)(C)C(=O)N1CCN(c2ccc(NC(=O)c3cccc(F)c3)cc2)CC1,inactive: -5.5%
18,COC1=C(OC)C=CC(c2nnn(C3CCNCC3)n2)=[C+]1,inactive: -20.6%
19,C=C(C)CNCc1ccc(OCC(O)CN2CCC(C(=O)OC)CC2)cc1 (stereo not drawn),16.9%
20,CN1CCCN(c2nc3nonc3nc2N2CCSCC2)CC1,inactive: -4.7%
21,COc1ccc(CNCc2ccccc2)cc1OCC(O)CN(C)C(C)C (stereo not drawn),inactive: -0.1%
22,CCN(Cc1cnn(C)c1)C(=O)c1ccc(OC2CCN(C)CC2)c(OC)c1,7.9%
23,COc1cc(CNCC2CCOCC2)ccc1OCC(O)CN1CCCC1 (stereo not drawn),inactive: 0%

# Part of the list above in order of heavy-atom count, rising.
row,SMILES,activity
6,C=CCN(CC=C)C(=O)Cn1nnnc1CN1CCOCC1,8.8%
1,Cc1nc(CN2CCN(Cc3nc(-c4cccc(Cl)c4)no3)CC2)cs1,inactive: -1.4%
19,C=C(C)CNCc1ccc(OCC(O)CN2CCC(C(=O)OC)CC2)cc1 (stereo not drawn),16.9%

# The listing continues.

row,SMILES,activity
1,C=CCn1nnnc1NCc1ccc(F)cc1,7.4%
2,Cc1ncoc1C(=O)N1CCc2c([nH]c3ccccc23)C1C(C)(C)C (stereo not drawn),2.7%
3,CCCn1cc(-c2cc(C(=O)N3CCCC3)c3cc(F)ccc3n2)cn1,3.2%
4,[C+]1=C(Cc2ccccc2)C=CC(OCCN2CCOCC2)=C1,2.5%
5,CN(C)CCNC(=O)CCC1CCN(Cc2nccs2)CC1,0.5%
6,OCCOc1cccc(CN2CCN(Cc3ccccc3F)C(CCO)C2)c1 (stereo not drawn),5.7%
7,N#Cc1ccccc1CN1C(=O)C(=O)c2ccccc21,1.6%
8,COc1ccc(OC2CCN(C(=O)C3CC3)CC2)c(C(=O)NCCCN2CCOCC2)c1,2%
9,CN(CCc1cn[nH]c1)Cc1c(C(=O)N2CCCCCCC2)nc2ccc(Cl)cn12,11%
10,COCCn1c(CN(C)Cc2cccs2)cnc1S(=O)(=O)CC1CC1,7.7%
11,CCCC(=O)Nc1ccccc1NC(=O)c1ccccc1SC,inactive: -2.9%
12,CN1C(=O)c2ccc(C(=O)N(C)C3CCCN(Cc4ccccc4F)C3)cc2C1=O (stereo not drawn),6.9%
13,C#CCN(Cc1cnc(S(=O)(=O)CC)n1CCCC)C1CCCCC1,3%
14,FC(F)(F)C1=[C+]C(OCCNCc2ccco2)=CC=C1,inactive: -15.8%
15,COc1ccc(S(N)(=O)=O)cc1NC(C)=O,inactive: -13.7%
16,O=C(CCC1CCCN(C(=O)C2(c3ccccc3)CCCCC2)C1)N1CCOCC1 (stereo not drawn),5.6%
17,Cc1noc(C)c1CC(=O)N1CCCC(CCC(=O)N(C)CCc2ccccn2)C1 (stereo not drawn),5.3%
18,COC(=O)C1CCN(C(=O)C(C)NC(=O)CC23CC4CC(CC(C4)C2)C3)CC1 (stereo not drawn),1.8%
19,O=C(Nc1ccnn1C1CCN(Cc2ccc(CO)o2)CC1)c1ccccc1Cl,inactive: -0.6%
20,COCCN1CCC(CN(Cc2ccncc2)Cc2ccc3c(c2)CCO3)CC1,0.4%
21,O=C1N(Cc2cccc(F)c2F)CCCC1(O)CN1CCCC1 (stereo not drawn),3.2%
22,O=C(CCC1CCN(Cc2c(F)cccc2Cl)CC1)N1CCCC1,11.6%
23,COc1ccc(CCN(C)C2CCCN(C3CCN(C(C)=O)CC3)C2)cc1OC (stereo not drawn),6.8%

row,SMILES,activity
1,O=C(c1ncn[nH]1)N1CCC2(CC1)c1ccccc1[C@@H](N1CCCCC1)[C@@H]2O,inactive: -9.2%
2,CCOC(=O)N1CCN(C2CCCN(C(=O)c3ccccc3SC)C2)CC1 (stereo not drawn),4.1%
3,O=C(c1n[nH]c2c1CCC2)N1CCC2(CCCN(Cc3cccnc3)C2=O)C1 (stereo not drawn),3.7%
4,COCCN1CCC(CN(Cc2ccncc2)Cc2cc3ccccc3o2)CC1,1.5%
5,COc1cccc(CC2CN(Cc3cccc(C)n3)CCO2)c1 (stereo not drawn),0.1%
6,Cc1c(C(=O)NCc2cccnc2)sc2ncnc(NCc3ccco3)c12,10.3%
7,Cc1ccc(-c2ccc(C(=O)N3CCOC(CCN(C)C)C3)cc2)o1 (stereo not drawn),inactive: -0.4%
8,Cc1nc(NC(=O)NCc2scnc2-c2ccccc2)nn1C(C)C,4.5%
9,O=C(NC1CC(=O)N(Cc2cccc3ccccc23)C1)C(=O)c1ccccc1 (stereo not drawn),inactive: -11.4%
10,O=C(Cc1cccnc1)N1CCC2(CCCN(CCC3CCCCC3)C2=O)C1 (stereo not drawn),1.7%
11,COc1ccc(CC2CN(C(=O)c3ccc4nccnc4c3)CCO2)cc1 (stereo not drawn),inactive: -1.2%
12,c1cnc(-n2ccnc2)c(CNC2CCCCCCC2)c1,2.4%
13,COc1ccc(CNCc2cc(C)n(C)n2)c(OCC(O)CN2CCCC2)c1 (stereo not drawn),inactive: -2.4%
14,COc1ccccc1C(=O)Nc1ccc(N2CCN(C(=O)c3cccs3)CC2)cc1,inactive: -10.8%
15,Cc1ccccc1-n1c(C)cc(=O)[nH]c1=O,inactive: -13.4%
16,CCN(CC)C(=O)NCc1ccccn1,inactive: -15.1%
17,Cc1cccn2c(=O)c3cc(C(=O)N4CCCCC4)n(C)c3nc12,inactive: -4.1%
18,CCOc1ccc(CN2CCN(Cc3cc(C)[nH]n3)CC2CCO)cc1 (stereo not drawn),inactive: -1.8%
19,Fc1ccc(C2(CNc3ccnn3C3CCCC3)CCOC2)cc1 (stereo not drawn),9.8%
20,C#CN(CCC)c1nc(NCC)nc(NCC)n1,inactive: -7.9%
21,CCOCCCNC(=O)CCc1nnc(Cc2cc(OC)ccc2OC)o1,7.5%
22,Cc1[nH]cnc1CN1CCc2[nH]nc(-c3ccc(Cl)cc3)c2C1,0.7%
